From PubChem BioAssay AID1508600 (Functional Genomics Laboratory (NCATS/FGL), 2020) come the findings set out here.

In all, about 53,000 sequences went through this assay and about 3,700 (7%) were called active.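 How the source made its calls: active means gene knockdowns whose robust z-score for IL-1 alpha signal is at least 2 or at most -2, so actives lie on both sides; inactive means the rest.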 This is one part of the list.

This assay in a line: Components of the Cytosolic LPS Sensing Pathway: Gene Identification via Genome-wide siRNA Screen.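 Further: robust z of the log signal after scaling to non-targeting control siRNA wells of the plate.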 The conditions noted are these: RAW264.7 macrophages, IL-1a HTRF, actives lie on both sides, screened at 100 nM (by protocol), cells primed 5 h with Pam3CSK4 first. The essentials:
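RAW264.7 mouse macrophages reverse-transfected with single siRNAs (100 nM final) for 48h, primed with Pam3CSK4 for 5 hours, then transfected with LipidA for 24 hour. Supernatant IL-1a read by HTRF; values normalized to negative-control median, log-transformed robust z-scores.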
For CGAUGAUCUUACACUACCCTT against Irx6, the z-score is inactive: -0.164. For GCUGGAAGUAGUCCAUACATT against Ufl1 the value was inactive: -0.733. For GGUCUAUAGGAAGAAAUGGTT against Kcnip3, the z-score is inactive: -0.141. Consider GCAUUAGGUAAAACUCUUATT against Plpp6, for which the z-score is inactive: 1.9. With GCGAUUGUUGCCUAUGGGUTT against Higd1a, the z-score was inactive: 0.0263.

Regarding GCAAUGUCUAUUCAAGGUUTT against Dpy19l1, the z-score was inactive: 0.835. For GCCUCUUUGUAAAAAUUCUTT against Atp6v0b the value was inactive: -1.51; for GGGAGGAACAUCACCUCAGTT against Vmn2r123, inactive: 0.327; for GGACAUUGUGACAUCAUGUTT against Diras2, inactive: -1.12. Consider CGGCCCUAUAGUUUUCUGGTT against Fancb, for which the z-score was inactive: 1.08.

GCACCGAGACUUGUCAGAGTT against Rab36: the z-score is inactive: 1.13. For the sequence GGCCUUCUGUGUGGUCUAUTT against Kcnk7, the z-score was inactive: 0.124.

With CGAGCUUAAUCAUUGCCUGTT against Eprs, the z-score was inactive: -1.57. In the case of GGCUUUCCUAGGGAUGUCUTT against S100a3, the z-score is inactive: -1.76.

Regarding CCUCUGCAUCUUGGCACCATT against Tmem205, the z-score is inactive: -0.0753.

For GGAAUUCAUCUACAGAGAATT against Dpp6, the z-score was inactive: -0.239. Turning to GGUGUAGUAGUGAACUUGATT against Trib1, the z-score was inactive: 0.285.

Take GGUGUUCUUUGACAGUGCCTT against Atp5d: the z-score is inactive: 0.107. Regarding CGAUGGAUCGCUUCCUACATT against Muc4, the z-score is inactive: 1.55. Turning to GGAUUUAUGCAUUUCUCCATT against Exosc8, the z-score was inactive: -1.77. For the sequence GCAAUGGUUGAGUUUGAGUTT against Hnrnpll, the z-score was inactive: -0.711. In the case of GCAGUGGUGUAAACCUCAUTT against Pde3b, the z-score was inactive: -0.794. Turning to GGAGGACUAAUGGUGUUCATT against Pcnx4, the z-score was inactive: -0.0404. For GGUGCAUGCACAAGUGUUUTT against Esrra, the z-score was inactive: 2. As for CGGAGAACCAACCUAAGUUTT against Dok1, the z-score is inactive: 0.654.

With GAGUUCAUCCCGUAUCACCTT against Cox6a2, the z-score was inactive: -1.29. GCGGCGAUACUUCUACUUGTT against Grk2: the z-score was inactive: -0.584.

In the case of GGCACUUGAACAGAGUAGUTT against Spata17, the z-score was inactive: -1.74.

As to GCGCAAUGCAGAACUACGATT against Tac1, the z-score is inactive: 0.23. Turning to GGAUAUGACAGCUUUCUUUTT against T2, the z-score is inactive: -0.814.

As to CCUUCCUAACCAAUGAUGATT against Fam155a, the z-score was inactive: -1.66. For the sequence GGAGGUUCAACAUGAAAAUTT against Lingo2, the z-score is inactive: -0.253. Consider GGUUCAACAAAACAGGCUUTT against Serpina1f, for which the z-score was inactive: -1.01. Take CGAUGUAACAAAUGAGAUUTT against Gpbp1: the z-score is inactive: -0.685. Take GGCAGAAUGCACAGAACCUTT against Cpz: the z-score was inactive: -1.38.

For GCAAAUUUUGUACCAGGCCTT against Hnf1b, the z-score was inactive: -1.89.

GGAUGACCAACAACUAAAGTT against Sytl2: the z-score is inactive: -0.353. For the sequence GGGUAAUGAGCUUGGUGAATT against Zfp53, the z-score is inactive: -1.45. For GGACCUAAUAUCAUACUCATT against Crtc2 the value was inactive: -0.649; for CGAAGCUAAAGGAUAUAGATT against Fahd1, inactive: 0.477. Turning to GGGUGACCUUUACGUCUUCTT against Reep1, the z-score was inactive: 0.0877. Regarding GGAUAACCGCCAAUAAAAATT against Msantd3, the z-score is inactive: 0.255. Then GGAAUCAGUUUCAGAGAAUTT against Mtf2, with inactive: -0.557; and GGAUAAAGCAUCAGACAAATT against Hmgn1, with inactive: -0.202. Turning to GGUACAGGAAAAAAGAAGATT against Msl3, the z-score was inactive: -0.784. In the case of GCAAUGUGACCAAGACAAUTT against Prelid1, the z-score was inactive: 0.739.

For GGAUGUCUUUGUUCACCAGTT against Ybx2, the z-score is inactive: -0.267. GGCUCCUUUGGAGAAGUUUTT against Stk26: the z-score is inactive: 0.856. As for CCAUCAAGAAUGUCCGUGATT against Pkm, the z-score was inactive: -0.969. GGAAUAUGGAAAGACCUUUTT against Zfp790: the z-score was inactive: -0.592. GGCAGUUCUUAAGUAAUCATT against Fem1al: the z-score was inactive: 0.924. Take CGCAGAGUUGAUUGUCCUGTT against Neu2: the z-score is inactive: -1.41. As for GGGCUAAAGUUGAUAAUAATT against Psmc3, the z-score was active: -2.02. Take CGCUGAGCACUUUUCGGAATT against Rbp1: the z-score is inactive: 0.935. GGAACACGAAUCAUUUAUGTT against Eif4ebp2: the z-score was inactive: 0.351. In the case of GGUAAGUGGAGGUAUUCUUTT against Egln1, the z-score was active: 2.28. On to GGCCAUUCAGACGAGUGUUTT against Hivep3, for which the z-score was inactive: -1.44. For GGCUGGUACAAAGUUUUAGTT against Mpv17 the value was active: 2.55. Then GGCAUUCCAGUAAUUUUGGTT against Lpar4, with inactive: 0.875. As for CCCGUCUGCAUGCUGAAAATT against Pisd-ps1, the z-score was inactive: 0.0779. On to CCUCAAGACUAUCAGGAGATT against Nrbf2, for which the z-score was inactive: 0.434. Then GGCAGAGGUUGAAAGACUUTT against Cibar1, with inactive: 0.332; and CGGAAACAAACGGACUGAUTT against Agpat4, with inactive: 0.243. As for GCAGUACAGAUCGCCAUUATT against Tmeff1, the z-score is inactive: 0.91.

On to GGCACAGCUGAUGAAACAATT against Ap2m1, for which the z-score was inactive: -0.667. Take GGCAUGUAAUUUGAUGAUCTT against Mansc1: the z-score was inactive: -1.48. Consider GGCCACUUUUCACCACAAATT against Cypt3, for which the z-score was inactive: 0.22. Turning to GCCAAUGGUCACGAACCUATT against Senp5, the z-score was inactive: -0.217. Regarding GGUUCACCUGGAUUCUGCATT against Clasrp, the z-score is active: -2.1. As for GCUUAGAUCUUACCCACCCTT against Ptcra, the z-score is active: 2.52. As to GGAUCAAGGAAGCUCUCAGTT against Retnlb, the z-score is inactive: -0.121. For GGUUGAUUAGAAUUGAUGCTT against Fermt1 the value was inactive: -1.02; for GGCAAAGCAAGCUAUAUCCTT against Cxcr5, inactive: 0.55; for GCGGGACACCAUCAAUCCATT against Sytl4, inactive: 0.322. As to GGAUGUGUGAAUCUACUGATT against Gpm6a, the z-score was inactive: -0.432. GCUCAUAUACUCUAAAUUGTT against Vmn1r63: the z-score was inactive: -0.587.

Regarding GGGUGAGUAUAUGAUUCCUTT against Ctsd, the z-score was inactive: -1.5.

As for GCUUGUGGAUUCGAUUUGGTT against Gtf3c5, the z-score is inactive: 0.485. For GGUAGAGCAGAGCCUCCAUTT against Olfr555 the value was inactive: 0.933; for CCGUGAAUUUUCAUUCACATT against Prim1, inactive: 0.289; for GGAAGAAUCGUUUAUGACATT against Ppp4r2, inactive: 0.73. For GGAUGUUCCAGCCCUUAUUTT against Rtl3, the z-score was inactive: 0.351.

GGUGCUGUUGAAUUGUGGGTT against Wdr77: the z-score is inactive: -0.366. For CCCAAUACCCAGGACUCAATT against Zfp51, the z-score is inactive: -0.542. GGUUUUAAGUUCUAGGGAATT against Olfr1288: the z-score is inactive: -0.599.

For GGAAGACGGGCAUCAUGAATT against Srf, the z-score was inactive: 0.251. For GGAUGACCACACUAACCUCTT against Fars2, the z-score is inactive: 0.915. Turning to GCUAUAUUGUUAGCACACATT against Hmgn2, the z-score was inactive: 0.326. For CGCUAUCUCGUUCAGGAUATT against Timm23, the z-score was inactive: 1.95.

With GCAAGAUGGUAUCAGCAGATT against Sde2, the z-score is active: -2.1. With GGAGCAGUUGUGUUUAACATT against Psg17, the z-score is inactive: 0.596.

As for GGUAUCUGACCUCUUAAAATT against Olr1, the z-score was inactive: 0.321. Consider GGCCCAUAUUUUAUUACCGTT against Galns, for which the z-score was inactive: -1.84.

Turning to GGACAUCUGUGUUAAAUUUTT against Npy1r, the z-score was inactive: -0.47. For the sequence GGACGGCAAAGCGUACUGUTT against Pxn, the z-score is inactive: -0.763. Then GGCACUGAGACUUGAUACATT against Spink10, with inactive: -0.177; and GGCUCUUUUGAUCACCAAUTT against Abcc1, with inactive: -1.55; and GGUCCAGAAGAAUUAUGAATT against Pam16, with inactive: -0.553.

As for CCUGCAAGACAUUUCUCAGTT against Gm1968, the z-score was inactive: -1.26.

For the sequence GCGGGAGAGCUAUGAAACATT against Mrps21, the z-score is inactive: -0.0502.

Consider CUGUAAGGCGGAUAAGACCTT against Pantr1, for which the z-score is inactive: -1.42.

For the sequence GAGUCAUUACACCAGACAGTT against Gm5533, the z-score was inactive: 0.0787. Consider GGAGAAGUUCUGAACUGCUTT against Ice1, for which the z-score is inactive: -1.36. Then GGGAGUUCUCUAAAUGCUUTT against Olfr482, with inactive: 1.52; and CCUAGGAAUCCUUGAUGAUTT against Bmp8b, with inactive: 0.14. For CGACACACCAGAACGAAUCTT against Cmtm8 the value was inactive: -0.424. Consider CGGAGAUUGUCCAAUGCAUTT against Hid1, for which the z-score is inactive: 0.199. For GCCACUCAUAUUGAUCCAUTT against Prss34 the value was active: -2.31.
